## Primary screen of a compound library

Data taken from ChEMBL document CHEMBL3988442, “University of Dundee, Small-Polar-MMV Screening Library” (2021).

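Viability assay of Plasmodium falciparum sporozoites; the read-out is not stated. The concentration is filed as 10 mM, unlikely as a test dose, so the dose is not known. Higher reads as lower viability (inferred: compounds with an IC50 in retests scored well above the rest). Strong results were mostly tested again. Of about 34,000 compounds tested this way, about 280 (0.84%) reached 50% or more in at least one test.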

Results are given as percent effect. The controls that fix the scale are not given in the record; negative values are as filed. This is an unselected part of the compounds tested. Two or more numbers in one place are separate tests of the same structure; such repeats can differ widely.

{"smiles": "Cc1ccccc1C(C)N(C)Cc1nc2c(cnn2C)c(=O)[nH]1", "stereo": "configuration not stated", "effect": 12.96}
{"smiles": "Cl.c1ccc(CCNc2cccc(C3CCCNC3)n2)cc1", "stereo": "configuration not stated", "effect": -1.34}
{"smiles": "O=S(=O)(NCc1ccccc1)Nc1ccc(-n2ccnc2)cc1", "effect": 8.154}
{"smiles": "CCOCC(O)CN1CCN(C(=O)C2CCC2)CC1", "stereo": "configuration not stated", "effect": 3.992}
{"smiles": "Cc1ccc(C(=O)N2CCC3(CC2)COC(COc2ccccn2)C3)o1.O=C(O)C(F)(F)F", "stereo": "configuration not stated", "effect": -2.796}
{"smiles": "O=C(O)c1ccccc1-c1ccc(CN2CCC(CO)C2)cn1", "stereo": "configuration not stated", "effect": 5.438}
{"smiles": "Cl.O=C(NC1CCCC1)c1ccc(C2CCCNC2)nc1", "stereo": "configuration not stated", "effect": 7.697}
{"smiles": "CCCn1cc(-c2cc(-c3c[nH]cn3)c(C#N)c(N)n2)c(C)n1", "effect": -8.154}
{"smiles": "COc1nc2c(cc1C(=O)N1C[C@H](N)C[C@H]1C(=O)NC(C)C)CCC2", "effect": -19.93}
{"smiles": "NC(=O)c1ccc(CN2CCCC(O)C2)cc1", "stereo": "configuration not stated", "effect": -1.578}
{"smiles": "O=C(O)C(F)(F)F.O=C(O)C(F)(F)F.c1csc(CN2CCCC3(COCCN(c4cnccn4)C3)C2)c1", "stereo": "configuration not stated", "effect": 3.866}
{"smiles": "CN(Cc1nc(N)c2ccccc2n1)C1CCCN(c2cccnn2)C1", "stereo": "configuration not stated", "effect": 15.21}
{"smiles": "Cc1cc(NC(=O)N2CCN(c3nc(C)c(C)s3)CC2)no1", "effect": 8.343}
{"smiles": "Cc1ccn(CCC(=O)NCCc2ccco2)n1", "effect": -7.968}
{"smiles": "[H][C@@]12CS(=O)(=O)C[C@]1([H])N(Cc1cnc(C)nc1)CCN2C(=O)N(C)C", "effect": -2.473}
{"smiles": "COc1cccc(COCC(=O)N2CCCC(c3nncn3C)C2)c1", "stereo": "configuration not stated", "effect": 6.24}
{"smiles": "CN1CCCC(c2cccc(CCC(N)=O)n2)C1", "stereo": "configuration not stated", "effect": -0.3925}
{"smiles": "CC(=O)N(Cc1noc(C)n1)C1CCN(Cc2ccc(C#N)cc2)C1", "stereo": "configuration not stated", "effect": 1.148}
{"smiles": "Cc1cccc(CNCC2COC3(CCCCC3)O2)c1C", "stereo": "configuration not stated", "effect": 11.55}
{"smiles": "CSc1ccc(NC(=O)Cn2cc(N)cn2)cc1", "effect": -5.277}
{"smiles": "CC(O)CC(C)(C)CNC(=O)NCc1cccc(-n2cncn2)c1", "stereo": "configuration not stated", "effect": -14.76}
{"smiles": "CCOC(=O)CSc1ccc(-c2nc(CC)no2)cn1", "effect": "40.67 & 46.73"}
{"smiles": "O=C(O)C(F)(F)F.[H][C@@]12CCN(CCOC)C(=O)[C@@]1([H])CN(Cc1ccc(C)s1)C2", "effect": 6.217}
{"smiles": "CN(Cc1ccncc1)C(=O)CCNS(=O)(=O)c1cccnc1", "effect": -20.1}
{"smiles": "Cn1cc(-c2cnc(N3CCOCC3)nc2)cc1C(=O)N1CCOCC1", "effect": "-17.52 & -24.5 & -14.42"}
{"smiles": "O=C(O)C(F)(F)F.c1cnc(N2CCC3(CN(CC4CCOC4)C3)C2)nc1", "stereo": "configuration not stated", "effect": 2.351}
{"smiles": "O=C(O)C(F)(F)F.O=C(c1cc[nH]n1)N1CCc2onc(COc3cccnc3)c2C1", "effect": 8.849}
{"smiles": "CCOC(C)c1noc(CN2CCN(Cc3ccno3)CC2)n1", "stereo": "configuration not stated", "effect": -7.638}
{"smiles": "CS(=O)(=O)N[C@@H]1CCO[C@]2(CCN(C(=O)c3cscn3)C2)C1", "effect": -14.69}

Once more, the final 2:

| SMILES | effect |
|---|---|
| `CCOC(C)c1noc(CN2CCN(Cc3ccno3)CC2)n1` (configuration not stated) | -7.638 |
| `CS(=O)(=O)N[C@@H]1CCO[C@]2(CCN(C(=O)c3cscn3)C2)C1` | -14.69 |